Primary screen of a compound library

Each number is a percent effect as filed.
How 0% and 100% were set is not recorded. Most values in the screen are low, and negative values occur.
Compounds were drawn at random from those tested, without regard to their results.

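Whole-cell assay for inhibitors of Mycobacterium tuberculosis growth, labelled Cornell in the record; the read-out is not stated. The concentration is filed as 10 mM, unlikely as a test dose, so the dose is not known. The record gives no direction; compounds strong in two other growth screens of this library score well above the rest, so higher reads as stronger inhibition. Of about 53,000 compounds tested this way, about 900 (1.7%) reached 50% or more in at least one test.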

| # | structure | Percent Effect |
|---|---|---|
| 1 | `COCc1nc(-c2ccc(S(=O)(=O)N3CCCC3)cc2)cs1` | 30.42 |
| 2 | `COc1ccc(CN2CCN(c3nccnc3OC)CC2=O)cc1` | -4.991 |
| 3 | `COc1ncc(C(=O)N2CCC(c3nc(C)n4ccsc34)CC2)cn1` | -37.88 |
| 4 | `O=S(=O)(C1CC1)N1CCC(Cn2cccn2)CC1` | -6.304 |
| 5 | `COCCN1CCC(NCc2cccc(F)c2)C1` (stereo not shown) | -17.86 |
| 6 | `CC(C)=CCN1CCN(Cc2cc(C)c(O)c(C)c2)CC1CCO` (stereo not shown) | 0.2698 |
| 7 | `CCN1CCC(CNC(=O)C2(c3ccc(F)cc3)CC2)C1` (stereo not shown) | -42.91 |
| 8 | `NC(=O)N1CCCC(C(=O)NCCOc2ccc3c(c2)OCO3)C1` (stereo not shown) | -39.07 |
| 9 | `O=C(O)C(F)(F)F.O=C(c1ccccc1F)N1CCC2(CC1)CC(N1CCCC1)CO2` (stereo not shown) | 0.4456 |
| 10 | `CCc1cc(NCCCOC2CCCC2)ncn1` | 19.79 |
| 11 | `CN1Cc2c(C(=O)NC3CCCCC3)ncn2-c2ccccc2S1(=O)=O.O=C(O)C(F)(F)F` | 7.959 |
| 12 | `Cc1c(Br)cccc1C(=O)NCc1cnn(C)c1` | 6.831 |
| 13 | `Cc1cc(C)c(C(=O)N[C@H](C(N)=O)c2ccccc2)c(=O)[nH]1` | -13.69 |
| 14 | `CC(C)=CCCC(C)CN1CCC(n2cc(CO)nn2)CC1` (stereo not shown) | -14.52 |
| 15 | `Cc1nn(CCNC(C)Cn2cncn2)c(C)c1Cl` (stereo not shown) | 6.908 |
| 16 | `CN(Cc1csc(-c2cccs2)n1)C(=O)CCn1ccc(=O)[nH]c1=O` | -17.2 |
| 17 | `O=C(NCCNc1ncccn1)c1ccc(OCc2ccccc2)nc1` | 7.93 |
| 18 | `CN(C)C(=O)CN1C(=O)CCC12CCN(Cc1ccsc1)CC2.O=C(O)C(F)(F)F` | 9.466 |
| 19 | `CNS(=O)(=O)CC(=O)NC(C)Cc1cccc(Cl)c1` (stereo not shown) | -14.73 |
| 20 | `CCc1c(C)sc(NC(=O)CN2CCN(CC)CC2)c1C(=O)OC` | 85.25 |
| 21 | `NS(=O)(=O)CCCNC(=O)c1cnc(-c2ccsc2)s1` | 14.77 |
| 22 | `COCCCN1CCCC(c2nccn2CC2CCC2)C1` (stereo not shown) | -4.056 |
| 23 | `O=C(O)C(F)(F)F.[H][C@@]12CN(Cc3ccc(OC)cc3)C[C@]1([H])OCCN2C` | 18.79 |
| 24 | `CCCNS(=O)(=O)c1cc2c3c(c1)c(C)cc(=O)n3CCC2` | -17.19 |
| 25 | `Cc1nc(CCNC(=O)NC2CCN(c3ncccn3)CC2)cs1` | 23.59 |
| 26 | `O=C(O)C(F)(F)F.O=S(=O)(c1cccs1)N1CC[C@@H](O)[C@@H]1Cc1ccncc1` | -25.68 |
| 27 | `O=C(NC[C@H]1OC[C@@H](NC(=O)c2ccccc2)[C@@H]1O)c1ccncc1` | -2.468 |
| 28 | `Cc1cc(C(=O)NCc2ccccc2CN(C)Cc2ccco2)on1` | -53.84 |
| 29 | `Cc1cc(NC(=O)C(C)Nc2cccc(COCc3ccco3)c2)no1` (stereo not shown) | 22.36 |
| 30 | `N#Cc1cccnc1Oc1cc(F)c(CN2CCCC2)c(Cl)c1` | 15.99 |
| 31 | `Cc1ccc(C2CCCN2S(=O)(=O)N(C)Cc2cnccn2)o1` (stereo not shown) | -1.555 |
| 32 | `O=C1CSC(c2cccnc2)c2c(n(C3CCOCC3)[nH]c2=O)N1` (stereo not shown) | 7.522 |
| 33 | `COCCN(CCOC)C(=O)c1cn(C(C)(C)C)c2ncccc12` | 6.709 |
| 34 | `CNC(=O)NCC1CCC2(CCN(C(=O)c3ccccc3)CC2)CO1` (stereo not shown) | 2.943 |
| 35 | `O=C(CC1CCc2ccccc21)NCCSc1ccccn1` (stereo not shown) | -33.58 |
| 36 | `[H][C@@]12C[C@@H](Oc3cccnc3)CN1CCN(Cc1cnn(C)c1)C2` | -6.13 |
| 37 | `COc1nc2ccn(CCNc3cc(C)ccn3)c(=O)c2cc1C#N` | 16.22 |
| 38 | `CCCc1cc(C(=O)N2C[C@@H](C)[C@](O)(C3CCC3)C2)[nH]n1` | 7.788 |
| 39 | `CCN1CCNC(=O)C12CCN(C(=O)Cc1ccsc1)CC2` | -3.287 |
| 40 | `CC(c1ccccc1)N1CCC(NC(=O)CCc2ccsc2)CC1` (stereo not shown) | -3.466 |
| 41 | `Cc1[nH]ccc1C(=O)N(C)C1CC(=O)N(Cc2ccccc2)C1=O` (stereo not shown) | 11.88 |
| 42 | `CC(C)c1nn(C)c(Cl)c1CNCCn1cccn1` | -33.99 |
| 43 | `Cc1cc2c(=O)n3c(nc2s1)CCN(C(=O)c1sc(C)nc1C)CC3` | 10.24 |
| 44 | `[H][C@]12CCN(C(=O)NC)CC[C@@]1([H])S(=O)(=O)N(CC)C2` | -18.39 |
| 45 | `Cc1csc(CNC(=O)NCC(O)c2ccc(F)cc2)n1` (stereo not shown) | -32.15 |
| 46 | `O=C(NCCNc1ccccn1)NC1CCOC2(CCCCC2)C1` (stereo not shown) | 22.51 |
| 47 | `CCOC(=O)N1CCN(C(=O)c2sc(-c3ccc(F)cc3)nc2C)CC1` | 19.3 |
| 48 | `O=C(O)C1(Oc2ccc3ccccc3c2)CCN(c2ncccn2)CC1` | 20.42 |
| 49 | `CCN(C)C[C@H]1CC[C@@H](Cc2ccc3c(cnn3C)c2)O1` | 25.31 |
| 50 | `Cc1ccc(N(C)S(=O)(=O)c2cc(C(=O)O)cs2)cc1` | -10.96 |
| 51 | `OCC1(Cc2ccc(Cl)cc2)CCN(Cc2ccccc2O)CC1` | 19.16 |
| 52 | `O=C(c1nnn(-c2ccccc2Cl)c1-c1ccccn1)N1CCSCC1` | 12.61 |
| 53 | `O=C(O)C(F)(F)F.O=C(O)C(F)(F)F.[H][C@@]12CN(C(=O)c3ccco3)C[C@]1([H])OCCN2CCN1CCCC1` | 11.91 |
| 54 | `Cc1csc2c(=O)n(C(C)Cc3cccnc3)cnc12` (stereo not shown) | 7.21 |
| 55 | `COC1CN(C(=O)C2CC2)CCC(=O)N(C)c2ccccc21` (stereo not shown) | -34.94 |
| 56 | `[H][C@]12CNC[C@@]1(C(=O)N1CCN(Cc3ncccc3C)CC1)CN(C)C2` | -117.4 |
| 57 | `CN(C)c1ncccc1C(=O)N1CCCN(c2cccnn2)CC1` | -13.93 |
| 58 | `Oc1ccccc1CN1CCCCCC1c1cccs1` (stereo not shown) | 30.03 |
| 59 | `CCCOCC(=O)N1CCCN(Cc2csc(CC)n2)CC1` | -21.27 |
| 60 | `CCc1ncc(C(=O)NCCNc2ccncc2)s1` | 20.99 |
| 61 | `Cc1nccn1CCN(C)C(=O)c1cn(-c2ccccc2)nn1` | -20.05 |
| 62 | `Cc1cnc2c(c1NCc1ccc(F)cc1)c(=O)n(C)c(=O)n2C` | -22.13 |
| 63 | `CCNC(=O)N1CCC(Nc2nccc(NCC)n2)CC1` | 24.45 |
| 64 | `CN1CCOC(CNCc2nc(-c3ccoc3)no2)C1` (stereo not shown) | 5.518 |
| 65 | `O=C(C1CCC1)N1CCn2c(COc3ncccn3)nnc2C1` | -9.598 |
| 66 | `CN(C)[C@@H]1CCN(C(=O)CC2CC2)[C@H]1Cc1cnn(C)c1.O=C(O)C(F)(F)F` | 23.04 |
| 67 | `Cc1cccnc1CNCC1(O)CCCN(CC(C)(C)C)C1=O` (stereo not shown) | 22.52 |
| 68 | `CCC[C@H]1CN(S(C)(=O)=O)C[C@@H]1NC(=O)COC(C)C` | 3.229 |
| 69 | `Cc1n[nH]c(C2CN(C(=O)c3ccc(=O)n(C)c3)CCO2)n1` (stereo not shown) | -6.072 |
| 70 | `CC(C)OCCS(=O)(=O)N1CCN(Cc2cccn2C)CC1` | 35.42 |
| 71 | `Cc1nc(NC(=O)N(C)Cc2ccoc2)nn1C` | 12.67 |
| 72 | `CCc1ncc(C(=O)N2C[C@@H](C)O[C@@H](C)C2)cn1` | 9.934 |
| 73 | `CCOc1cccc2c1OCC(C(=O)NS(=O)(=O)c1c(C)noc1C)=C2` | 106 |
| 74 | `CC1(Cc2ccc3c(c2)OCO3)CCCN(S(=O)(=O)N2CCOCC2)C1` (stereo not shown) | 15.84 |
| 75 | `O=C(NC1CCCCC1)c1ccc(Oc2ccc3nncn3n2)cc1` | -7.341 |
| 76 | `CC(CNS(=O)(=O)CCCC#N)c1ccsc1` (stereo not shown) | -46.05 |
| 77 | `CCCc1nc(C)cc(N2CCC3(CCC(=O)N(CC4CC4)C3)CC2)n1` | -0.6632 |
| 78 | `CCN(CC)CCCNc1nc(C)nc2c1CCN(C)C2.O=C(O)CC(O)(CC(=O)O)C(=O)O` | 25.64 |

9 of the entries, repeated:

structure,Percent Effect
CC1(Cc2ccc3c(c2)OCO3)CCCN(S(=O)(=O)N2CCOCC2)C1 (stereo not shown),15.84
Cc1nccn1CCN(C)C(=O)c1cn(-c2ccccc2)nn1,-20.05
[H][C@@]12C[C@@H](Oc3cccnc3)CN1CCN(Cc1cnn(C)c1)C2,-6.13
CCOC(=O)N1CCN(C(=O)c2sc(-c3ccc(F)cc3)nc2C)CC1,19.3
CN(Cc1csc(-c2cccs2)n1)C(=O)CCn1ccc(=O)[nH]c1=O,-17.2
Cc1csc(CNC(=O)NCC(O)c2ccc(F)cc2)n1 (stereo not shown),-32.15
CCC[C@H]1CN(S(C)(=O)=O)C[C@@H]1NC(=O)COC(C)C,3.229
OCC1(Cc2ccc(Cl)cc2)CCN(Cc2ccccc2O)CC1,19.16
N#Cc1cccnc1Oc1cc(F)c(CN2CCCC2)c(Cl)c1,15.99

From ChEMBL document CHEMBL3988442, “University of Dundee, Small-Polar-MMV Screening Library” (2021).